Reference: PubChem BioAssay AID1508600 (Functional Genomics Laboratory (NCATS/FGL), 2020)
Screen size: about 53,000 sequences; about 3,700 (7%) were called active.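 Rule for the calls: active = gene knockdowns whose robust z-score for IL-1 alpha signal is at least 2 or at most -2, so actives lie on both sides; inactive = the rest.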 Some of the results follow.

Assay: Components of the Cytosolic LPS Sensing Pathway: Gene Identification via Genome-wide siRNA Screen;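 note: robust z of the log signal after scaling to non-targeting control siRNA wells of the plate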
Settings: RAW264.7 macrophages, IL-1a HTRF, actives lie on both sides, screened at 100 nM (by protocol), cells primed 5 h with Pam3CSK4 first
Outline: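 Using IL-1a HTRF as read-out, the screen measured release from RAW264.7 cells after 48h siRNA knockdown (100 nM), 5 h Pam3CSK4 priming and 24 h cytosolic LipidA. Values were expressed relative to negative-control wells as robust z-scores.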

Sequence	z-score
GGAUCUGAAGAACAAGAUCTT against Krt17	inactive: 0.399
GGUACAAGAUCAAGUCUCCTT against Scml4	inactive: -0.265
GGGCAGGUCUUCUUCCUCATT against Hoxd4	inactive: -0.549
GGACUAUUUGCUGAUGGACTT against Trpc6	active: 2.74
CCUGGCUGUAAUCACCAUCTT against Olfr1160	inactive: 0.953
GGAACACUGUAUCUUACGGTT against Mtmr6	inactive: 0.599
GGAAAUCCUUAAAUCUGUCTT against Gk2	inactive: -0.49
GGAACUCAAACAUGAGCGGTT against Atp5j2	inactive: 0.649
GGGUCAGACAUUAAUGUGATT against Traf1	inactive: -0.173
GGAGCUUGCUGGAUUCAUATT against Ccdc126	inactive: -1.81
GGCUUCCUGGCUCAUCCAATT against Etv1	inactive: 0.479
CCACUUCAUGAUUGAGUGCTT against Phf8-ps	inactive: -0.836
GGAAUUGAUAUUUUGGUGATT against Hsdl2	inactive: -0.177
GGAGAUCCGAGUGAGGAAUTT against Eif3b	active: 2.91
GCCUGAUUGACUUAGAGUCTT against Eps8	inactive: 0.821
GCAUCCAUCUCCAUCAUGGTT against Olfr988	inactive: -1.63
GGCCCUUUAAAAAUAAAGCTT against Ppp1r14b	inactive: -1.17
GGACACCCUUAUAUUUGUCTT against Olfr1216	inactive: 1.2
CCUCAUGCCUCAUUUCAAATT against Arhgef6	inactive: -0.603
GGCAUCUCUGAGUUACAUUTT against Snu13	inactive: 0.695
AGGAAAACGCAUAGCUUAUTT against Platr28	inactive: 0.372
GCACCUAAGUAAGAUUUGATT against Txlnb	inactive: -0.93

Quoted from the listing.
Under z-score, GGAACUCAAACAUGAGCGGTT against Atp5j2 reads inactive: 0.649
Under z-score, GGAUCUGAAGAACAAGAUCTT against Krt17 reads inactive: 0.399

Given with bars between the fields: part of the list above
Sequence | z-score
GGAAAUCCUUAAAUCUGUCTT against Gk2 | inactive: -0.49
GGAACUCAAACAUGAGCGGTT against Atp5j2 | inactive: 0.649
GGGUCAGACAUUAAUGUGATT against Traf1 | inactive: -0.173

(further entries)

Sequence	z-score
GCCCUUAUUCCAGUCAGUUTT against Cgnl1	inactive: 0.325
CCGGCCUAUCAGAGAUUGCTT against 2200002J24Rik	inactive: -0.118
GGCCUUAACUACUCUGAAGTT against Pld5	inactive: -1.36
CGGUCUUCCUACUUUUGGUTT against Qars	inactive: 0.523
GGAGAUCCCUAUUAUAAAGTT against Ankfy1	inactive: 1.06
GCCUUCGAGCUACGAUUAATT against Slc27a5	inactive: 0.57
GCAGAAGUACGAAGGAGAATT against Abcd3	inactive: -1.02
CCCACAUUAAAUGAAUAGGTT against Traf4	inactive: -0.832
GGCUCAGAUUGAUAGGAUATT against Gmfg	inactive: 0.103
CCUGAGCCUGGUCUUAUGUTT against Olfr1423	inactive: -0.321
AUACUGGCUACAGUUUUUGTT against Olfr834	inactive: 1.75
GCUCUGUUGUGGAUGCAAUTT against Lonrf2	inactive: 0.859
CCUCGUAAGCGUGUGGAUUTT against Brsk1	inactive: 0.225
GGCAUUCAUGGAGACUGUGTT against Zfpl1	inactive: -0.467
GGUCAAUGUGAUUGAGGAUTT against Acap1	inactive: 0.869
GCAGCACAGAAAUGUUUCCTT against Tas2r106	inactive: 0.918
GGUAGAACCCAUGACAGCUTT against Uba7	inactive: -0.442
CCAUUUUUCAGAUUGUGAUTT against Tnfaip8	inactive: -0.822
GGAGGACCUGAAGCUUCAGTT against Retsat	inactive: 0.755
GCUGCACUAAAAAUCAAUUTT against Sall1	inactive: -1.22
GGUGGUCUCUGGCCUUUAUTT against Ccr8	inactive: 0.125
CCUAUCUCUUAGCAAAGAUTT against 2010003K11Rik	active: 2.87

Sequence	z-score
CCAUGACCUAGACUCUACATT against Pxdn	inactive: -0.238
GCCAGUAGUAGUAGAAUAATT against Gm4841	inactive: 0.997
GGAAACUUUACUUUCAUGGTT against Kcnu1	inactive: -0.305
GCAGAAAGCAUACGGAGGCTT against Nfatc2ip	inactive: 0.0321
GGAGAUGGCAAUUCCGGUUTT against Aldh18a1	inactive: 1.42
GGCAGAAGCCGUUAGAGAUTT against Cep295nl	inactive: 0.35
GGCAUUCCUCGGAAGUCAATT against Smad7	inactive: -0.372
GGAGCAGAGGCUACAAAGATT against Prc1	inactive: -0.318
GCAAAGAAGUUGGGAUAUCTT against Rad51c	inactive: -1.27
GGCAAUUAUUCGUGUCUUATT against 4930449I24Rik	inactive: -1.26
GGACAAUGUAUGGAUCCCATT against Pilra	inactive: -0.842
CCAUACGAACAGACAUUUUTT against Tcn2	inactive: -0.29
GGGUCCAUGACAAUUCACATT against Rhbg	inactive: -0.592
GCUGGUUUACCAAAACAUATT against Gna14	inactive: 0.698
GGAGUGAUCAUCUAUAAUUTT against Rnf133	active: 2.12
GGUCGAGAGAAACGGAACUTT against Lrrc3	inactive: 0.0776
GGAAGGAAGUGGAAAUGAGTT against Tbc1d9b	inactive: 0.806
GGCAUUUUUCAUCGAGUCGTT against Pfkfb3	inactive: -1.67
CCACACUUGCUGAAUACAGTT against Gm9734	inactive: 0.139
GGGUAAUUGACUGAGCUCUTT against Cyb5d2	inactive: -0.53
GGCUCAAGAAGAAGAAUGCTT against P2ry1	inactive: 0.556
CCAAAACGUGCAACACAAUTT against Cops6	inactive: 0.37

Sequence	z-score
GGUGCAUCACCAGAACUCGTT against Ch25h	inactive: -0.787
GGGUGAAUUUGAUUCGCUGTT against Prr15l	inactive: 0.753
GGAUGGAAUCAUUUGUAGCTT against Apba3	inactive: 1.76
GGCUGCUCAUACGAUUAAUTT against Nek11	inactive: -0.0645
GGUGAUCUACUACAGGAAUTT against Fcer1a	inactive: -0.434
GCUAAGAAGCAGACUUCAUTT against Washc2	inactive: 1.35
CCCUAGUCUCUCUUCAAUCTT against Prss2	inactive: 1.04
GGGAGAGGCAACCUGUAUCTT against Chchd1	inactive: -0.193
GGACAUCUUCAUUUACAGATT against Golga4	inactive: -0.0101
GGUUAUCAUCUUGUGAAAATT against Srpk1	inactive: -0.628
GGUCAGAAGAGUUUGCUAATT against Sgms2	inactive: 0.552
GGUAUGUACUACAAACAAUTT against Pigl	inactive: -0.561
GGCUUCUUUCUCGGCAAGATT against Ydjc	inactive: 1.34
GGCAGUAAGGCUCCAAUCUTT against Tcp10a	active: -2.1
GGAAUACUGAAUUUAAGGATT against Olfr1416	inactive: 1.25
GGCACAUUCAUAGAACAAGTT against Znrd1as	active: 2.01
GCCUCAACAUGAUCCCGAGTT against Ccdc172	active: -3.34
GGGAUCAGUGGAGUACUACTT against Ear6	inactive: 0.0427
CCCUAGAAUUAUAUCCUGUTT against Col4a1	inactive: -0.494
GGUCCAUUAUGACGGCAAATT against Zfp385b	inactive: -1.67
AUACAACAGCACAACUGAUTT against Ces2b	inactive: -0.636
GGUGGUAACUACUGACAGCTT against Aebp1	inactive: 0.388

Sequence	z-score
CCUGUAGAUACCUCCCUACTT against Flt1	inactive: -1.25
CCUUUGUAUUUGACGUGUATT against Id4	inactive: 1.08
CCGGAUGCUGGGCUUAGAATT against Nmb	inactive: -1.14
GGCAAGAUAAGCUAAAUCCTT against Gpr63	inactive: -0.822
GGCAAUGGAAGGAAUCUUCTT against Sdf2l1	inactive: -0.968
GGCAUGCUAAAAAUAACUGTT against Spcs1	inactive: -0.294
GCUAACCACCAAACCUUCUTT against Ssc5d	inactive: 0.466
GGCAAACCUGCUUCUGCUATT against Prss52	inactive: -1.27
GGAAGCAAUUUUUUACUCATT against Itm2a	inactive: 0.247
UUCAUGUAGGUUUAUUAUUTT against Olfr194	inactive: 0.29
GGACCAGCUUUUCAACAUUTT against F8	inactive: 0.141
CCGUCUGGUACAACAUGAUTT against Ccdc50	inactive: -0.497
CGACUACCUGCUACAUGGCTT against Adipor1	inactive: -1.67
GGACAUGUUCUCAUUUACATT against Zfp473	inactive: -1.23
CCGAACUUUUUCAACAAAGTT against Eif4g2	inactive: -0.69
GGUGCGCUGAGAAAACUGATT against Olfr1402	inactive: 1.84
GGUCCUUGCCACUAAGCCUTT against Gtf2h5	inactive: 0.148
GGAGCUCUGGGACAAAUUCTT against Tbx20	inactive: 1.34
GCUAAAUCUCAAUGACCACTT against Kcnn3	inactive: -0.362
